Laboratory results from the supplement of paper PMC10849652.
The other results are listed elsewhere or left out.

Protein sequences, listed by entry. Tags and fused reporters are not part of them. Lines headed by an entry give the natural chain unless they say otherwise; changes in a name come on top.
UniProt P49005: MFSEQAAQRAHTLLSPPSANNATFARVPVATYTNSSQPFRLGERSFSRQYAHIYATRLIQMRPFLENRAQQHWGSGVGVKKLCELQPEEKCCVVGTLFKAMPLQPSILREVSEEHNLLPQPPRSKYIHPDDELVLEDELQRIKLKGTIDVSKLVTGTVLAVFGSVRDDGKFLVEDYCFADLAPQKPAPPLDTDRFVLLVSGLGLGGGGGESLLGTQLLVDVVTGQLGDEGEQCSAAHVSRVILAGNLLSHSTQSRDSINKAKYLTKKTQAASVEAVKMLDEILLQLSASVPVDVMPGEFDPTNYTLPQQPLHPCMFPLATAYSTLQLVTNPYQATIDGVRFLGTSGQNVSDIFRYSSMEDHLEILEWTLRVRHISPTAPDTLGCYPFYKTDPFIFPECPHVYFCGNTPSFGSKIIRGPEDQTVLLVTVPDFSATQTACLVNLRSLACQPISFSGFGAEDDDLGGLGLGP
UniProt P13797: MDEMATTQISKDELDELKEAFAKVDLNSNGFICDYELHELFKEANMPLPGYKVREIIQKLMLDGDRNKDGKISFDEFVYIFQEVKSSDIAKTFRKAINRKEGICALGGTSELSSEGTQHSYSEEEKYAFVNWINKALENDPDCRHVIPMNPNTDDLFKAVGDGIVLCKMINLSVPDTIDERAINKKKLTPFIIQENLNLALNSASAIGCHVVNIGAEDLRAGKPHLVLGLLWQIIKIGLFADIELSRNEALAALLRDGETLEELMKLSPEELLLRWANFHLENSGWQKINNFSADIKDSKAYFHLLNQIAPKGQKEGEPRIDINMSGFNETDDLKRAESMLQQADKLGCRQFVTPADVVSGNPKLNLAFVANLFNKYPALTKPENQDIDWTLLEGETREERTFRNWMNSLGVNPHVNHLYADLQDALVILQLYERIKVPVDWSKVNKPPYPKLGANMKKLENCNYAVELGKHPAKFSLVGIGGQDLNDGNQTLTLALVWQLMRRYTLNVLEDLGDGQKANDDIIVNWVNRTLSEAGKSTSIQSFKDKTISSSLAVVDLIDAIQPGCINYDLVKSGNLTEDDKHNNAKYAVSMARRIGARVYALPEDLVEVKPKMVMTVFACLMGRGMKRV
UniProt Q9Y535: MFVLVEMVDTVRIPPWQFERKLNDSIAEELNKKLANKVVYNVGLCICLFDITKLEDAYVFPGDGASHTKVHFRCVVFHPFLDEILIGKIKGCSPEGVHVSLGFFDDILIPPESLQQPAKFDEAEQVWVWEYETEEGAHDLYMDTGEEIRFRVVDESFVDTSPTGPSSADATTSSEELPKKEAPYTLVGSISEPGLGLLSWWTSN
UniProt P0CAP2, whole entry, looked up: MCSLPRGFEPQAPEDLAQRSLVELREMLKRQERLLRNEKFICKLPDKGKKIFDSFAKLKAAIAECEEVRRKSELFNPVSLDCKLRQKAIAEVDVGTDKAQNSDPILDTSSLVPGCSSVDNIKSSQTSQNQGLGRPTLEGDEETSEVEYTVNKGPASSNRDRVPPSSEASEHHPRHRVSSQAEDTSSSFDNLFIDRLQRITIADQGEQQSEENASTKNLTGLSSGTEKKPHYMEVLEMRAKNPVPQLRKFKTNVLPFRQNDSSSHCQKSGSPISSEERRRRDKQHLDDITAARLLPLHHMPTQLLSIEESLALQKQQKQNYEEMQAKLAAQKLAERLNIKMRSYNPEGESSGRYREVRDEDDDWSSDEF
UniProt Q8IYS1: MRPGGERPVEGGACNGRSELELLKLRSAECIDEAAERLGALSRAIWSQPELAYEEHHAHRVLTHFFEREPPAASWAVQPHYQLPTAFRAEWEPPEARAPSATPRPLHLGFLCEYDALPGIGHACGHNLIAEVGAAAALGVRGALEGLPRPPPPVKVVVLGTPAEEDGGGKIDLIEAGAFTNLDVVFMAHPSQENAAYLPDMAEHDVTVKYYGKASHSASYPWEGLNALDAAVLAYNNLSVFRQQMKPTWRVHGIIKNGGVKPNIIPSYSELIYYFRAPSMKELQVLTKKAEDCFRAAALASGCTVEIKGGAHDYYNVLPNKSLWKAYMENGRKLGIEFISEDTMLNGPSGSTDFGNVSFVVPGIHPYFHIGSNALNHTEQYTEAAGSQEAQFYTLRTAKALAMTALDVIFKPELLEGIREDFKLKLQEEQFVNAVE
UniProt Q9UBT6: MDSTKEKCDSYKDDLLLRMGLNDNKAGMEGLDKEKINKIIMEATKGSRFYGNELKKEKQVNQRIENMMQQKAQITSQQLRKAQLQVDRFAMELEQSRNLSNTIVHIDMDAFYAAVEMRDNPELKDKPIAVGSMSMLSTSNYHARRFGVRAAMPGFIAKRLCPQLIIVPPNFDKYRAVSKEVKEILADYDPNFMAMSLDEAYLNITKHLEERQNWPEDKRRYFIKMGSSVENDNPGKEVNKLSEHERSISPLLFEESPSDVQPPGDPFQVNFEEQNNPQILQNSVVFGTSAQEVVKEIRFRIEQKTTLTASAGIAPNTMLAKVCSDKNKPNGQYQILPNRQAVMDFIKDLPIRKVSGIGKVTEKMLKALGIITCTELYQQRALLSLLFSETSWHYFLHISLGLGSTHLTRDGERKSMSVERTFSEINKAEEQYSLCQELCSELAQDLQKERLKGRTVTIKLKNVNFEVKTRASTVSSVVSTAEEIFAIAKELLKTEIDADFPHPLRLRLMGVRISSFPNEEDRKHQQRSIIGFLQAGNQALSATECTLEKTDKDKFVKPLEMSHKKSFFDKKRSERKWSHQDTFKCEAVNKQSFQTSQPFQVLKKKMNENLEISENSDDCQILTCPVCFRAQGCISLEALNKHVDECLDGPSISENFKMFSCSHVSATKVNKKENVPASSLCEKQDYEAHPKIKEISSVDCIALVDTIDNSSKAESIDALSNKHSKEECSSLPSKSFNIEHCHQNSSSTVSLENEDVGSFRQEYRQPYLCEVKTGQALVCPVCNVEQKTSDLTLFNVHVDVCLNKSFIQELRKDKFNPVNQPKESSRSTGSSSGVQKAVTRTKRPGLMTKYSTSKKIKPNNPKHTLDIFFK
UniProt Q15054: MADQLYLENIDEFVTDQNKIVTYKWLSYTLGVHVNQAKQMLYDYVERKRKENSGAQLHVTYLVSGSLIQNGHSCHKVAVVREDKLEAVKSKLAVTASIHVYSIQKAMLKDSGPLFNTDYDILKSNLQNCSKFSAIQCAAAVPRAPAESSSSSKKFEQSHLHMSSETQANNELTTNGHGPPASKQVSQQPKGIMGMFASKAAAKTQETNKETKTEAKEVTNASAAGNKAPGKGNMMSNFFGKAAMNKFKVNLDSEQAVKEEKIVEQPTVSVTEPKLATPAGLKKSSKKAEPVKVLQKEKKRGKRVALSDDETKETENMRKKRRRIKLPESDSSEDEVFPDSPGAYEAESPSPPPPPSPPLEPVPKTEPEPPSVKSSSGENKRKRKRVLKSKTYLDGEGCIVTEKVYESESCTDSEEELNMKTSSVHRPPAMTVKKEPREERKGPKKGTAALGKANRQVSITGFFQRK
UniProt Q6UW63: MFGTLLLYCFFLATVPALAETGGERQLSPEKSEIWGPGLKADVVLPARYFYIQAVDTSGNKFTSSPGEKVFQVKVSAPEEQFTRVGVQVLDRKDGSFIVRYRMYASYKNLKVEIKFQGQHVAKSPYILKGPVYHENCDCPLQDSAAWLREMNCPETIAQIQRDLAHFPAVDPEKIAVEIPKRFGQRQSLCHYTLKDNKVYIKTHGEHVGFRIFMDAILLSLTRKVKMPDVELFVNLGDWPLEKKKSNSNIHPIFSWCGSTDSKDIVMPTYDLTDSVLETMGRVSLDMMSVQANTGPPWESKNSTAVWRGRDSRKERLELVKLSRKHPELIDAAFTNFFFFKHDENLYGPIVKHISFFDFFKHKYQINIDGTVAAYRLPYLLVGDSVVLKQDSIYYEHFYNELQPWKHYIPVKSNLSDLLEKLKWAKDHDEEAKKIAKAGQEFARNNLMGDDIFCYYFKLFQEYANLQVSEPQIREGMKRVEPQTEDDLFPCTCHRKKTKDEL
UniProt Q9NVS9: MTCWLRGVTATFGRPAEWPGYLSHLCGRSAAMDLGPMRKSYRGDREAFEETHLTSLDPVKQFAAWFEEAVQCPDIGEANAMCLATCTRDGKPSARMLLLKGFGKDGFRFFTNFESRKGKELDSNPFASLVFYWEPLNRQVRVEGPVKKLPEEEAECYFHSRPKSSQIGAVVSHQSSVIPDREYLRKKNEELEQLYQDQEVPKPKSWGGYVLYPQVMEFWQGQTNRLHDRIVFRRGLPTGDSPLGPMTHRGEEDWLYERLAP
UniProt Q9HAB8: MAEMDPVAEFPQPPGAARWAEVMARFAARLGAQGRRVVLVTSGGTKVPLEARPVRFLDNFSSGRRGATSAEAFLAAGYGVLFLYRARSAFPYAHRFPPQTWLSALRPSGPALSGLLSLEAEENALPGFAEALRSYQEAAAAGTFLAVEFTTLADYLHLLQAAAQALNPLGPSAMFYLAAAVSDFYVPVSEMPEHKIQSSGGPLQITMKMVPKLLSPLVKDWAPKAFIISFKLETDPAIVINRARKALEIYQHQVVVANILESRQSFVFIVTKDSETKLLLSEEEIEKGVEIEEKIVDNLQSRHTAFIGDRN
UniProt Q9UNP9: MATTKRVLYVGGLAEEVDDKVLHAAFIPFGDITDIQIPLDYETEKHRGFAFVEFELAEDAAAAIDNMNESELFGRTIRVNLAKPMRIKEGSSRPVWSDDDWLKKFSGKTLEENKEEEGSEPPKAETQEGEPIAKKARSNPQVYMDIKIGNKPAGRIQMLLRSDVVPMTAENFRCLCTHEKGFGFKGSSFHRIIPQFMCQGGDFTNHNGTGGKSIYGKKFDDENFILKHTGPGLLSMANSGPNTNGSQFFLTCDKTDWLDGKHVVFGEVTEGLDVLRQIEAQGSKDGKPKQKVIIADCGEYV
UniProt Q9NR33: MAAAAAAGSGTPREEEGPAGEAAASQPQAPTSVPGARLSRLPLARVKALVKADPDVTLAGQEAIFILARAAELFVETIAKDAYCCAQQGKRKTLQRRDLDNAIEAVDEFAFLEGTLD
UniProt Q9NVU0: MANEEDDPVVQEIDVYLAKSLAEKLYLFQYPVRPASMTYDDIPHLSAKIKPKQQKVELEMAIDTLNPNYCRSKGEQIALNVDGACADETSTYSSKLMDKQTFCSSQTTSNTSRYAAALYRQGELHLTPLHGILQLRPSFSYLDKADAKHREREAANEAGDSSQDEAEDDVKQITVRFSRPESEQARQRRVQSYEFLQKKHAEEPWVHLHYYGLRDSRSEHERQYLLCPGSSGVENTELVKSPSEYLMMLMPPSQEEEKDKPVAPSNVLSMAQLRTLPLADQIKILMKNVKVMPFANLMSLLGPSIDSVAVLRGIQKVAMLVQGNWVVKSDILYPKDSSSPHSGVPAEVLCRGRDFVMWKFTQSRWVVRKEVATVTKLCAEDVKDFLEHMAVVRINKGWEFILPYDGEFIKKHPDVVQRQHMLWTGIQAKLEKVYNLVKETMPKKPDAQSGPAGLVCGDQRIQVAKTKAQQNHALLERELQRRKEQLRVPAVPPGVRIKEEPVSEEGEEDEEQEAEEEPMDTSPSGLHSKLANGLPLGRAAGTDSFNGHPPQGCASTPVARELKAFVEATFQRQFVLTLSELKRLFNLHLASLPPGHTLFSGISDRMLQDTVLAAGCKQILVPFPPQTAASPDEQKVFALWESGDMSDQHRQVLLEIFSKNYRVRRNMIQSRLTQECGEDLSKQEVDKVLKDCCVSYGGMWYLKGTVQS
UniProt Q9NRF9: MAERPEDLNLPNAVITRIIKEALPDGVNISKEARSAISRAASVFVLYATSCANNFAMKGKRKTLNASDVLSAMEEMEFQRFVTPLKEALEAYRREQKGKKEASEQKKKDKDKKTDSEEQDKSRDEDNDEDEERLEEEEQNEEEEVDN
UniProt O94903: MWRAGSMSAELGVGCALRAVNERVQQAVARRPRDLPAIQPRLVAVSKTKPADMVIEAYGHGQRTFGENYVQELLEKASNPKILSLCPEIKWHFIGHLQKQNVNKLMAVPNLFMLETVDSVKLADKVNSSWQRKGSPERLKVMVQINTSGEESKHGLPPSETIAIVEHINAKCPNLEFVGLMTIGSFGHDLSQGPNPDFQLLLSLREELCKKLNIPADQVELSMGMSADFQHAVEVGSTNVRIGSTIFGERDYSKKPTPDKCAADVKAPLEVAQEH
UniProt O15162: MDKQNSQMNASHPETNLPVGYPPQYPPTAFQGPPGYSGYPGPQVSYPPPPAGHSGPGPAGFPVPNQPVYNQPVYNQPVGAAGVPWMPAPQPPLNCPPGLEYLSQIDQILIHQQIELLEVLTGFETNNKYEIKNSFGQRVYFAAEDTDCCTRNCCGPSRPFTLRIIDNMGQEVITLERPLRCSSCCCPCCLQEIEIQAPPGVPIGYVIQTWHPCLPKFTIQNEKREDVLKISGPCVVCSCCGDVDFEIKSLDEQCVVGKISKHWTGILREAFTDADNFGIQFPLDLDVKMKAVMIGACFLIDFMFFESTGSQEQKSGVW
UniProt Q9Y2Y1: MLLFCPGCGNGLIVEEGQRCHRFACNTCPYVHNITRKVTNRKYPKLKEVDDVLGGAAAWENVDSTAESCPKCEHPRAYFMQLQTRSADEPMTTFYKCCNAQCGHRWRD

Legend:
Test in all cases: log2 fold change, soluble protein after heating vs DMSO (PISA); higher = thermal stabilisation; K562 lysate, 10 uM; active = over 0.2 and 3.5 SD of the protein, either way, in both replicates (recomputed)
[1] = compound: C1=CC=C(C=C1)[C@H](COC2=CC3=C(C=C2)NC(=O)N3)NC(=O)C4=CC=CN(C4=O)CC5=CC(=C(C=C5)F)F
How it was run: (§1)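 The values are log-two fold changes in thermal stability compared with solvent controls and come from duplicates. They were obtained by TMTpro 16plex LC-MS/MS, with channel sums equalised, on the supernatant after 21,000xg for 90 min. That supernatant came from crude K562 extract at 1 mg/mL protein treated with 10 μM compound for 30 min, heated for 3 min across 48°C-58°C, pooled and brought to 0.5% NP-40 at 4°C.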

[2] = compound: CC1=C(SC2=C1C(=N[C@H](C3=NN=C(N32)C)CC(=O)N)C4=CC=C(C=C4)Cl)C
How it was run: as §1

[3] = compound: CC1=C2C(=CC=C1)N=C(N(C2=O)C3=CC=CC=C3C)CN4C=NC5=C(N=CN=C54)N
How it was run: as §1

[4] = compound: Cc1sc2c(c1C)C(c1ccc(Cl)cc1)=N[C@@H](CC(=O)OC(C)(C)C)c1nnc(C)n1-2
How it was run: as §1

[5] = compound: c1ccc([C@@H]2C[C@H]2NC2CCNCC2)cc1
How it was run: as §1

Measured: log2 fold change

PPA1 (UniProt Q15181)
inactive: [1] 0.007 | [2] 0.017 | [3] 0.002 | [4] -0.02 | [5] 0.036

POLD2 (UniProt P49005)
inactive: [1] 0.021 | [2] 0.02 | [3] -0.04 | [4] 0.021 | [5] 0.003

PLS3 (UniProt P13797)
inactive: [1] 0.011 | [2] 0.006 | [3] 0.011 | [4] -0.042 | [5] -0.065

POLR3H (UniProt Q9Y535)
inactive: [1] 0.045 | [2] -0.024 | [3] 0.022 | [4] -0.013 | [5] -0.015

POLR2D (UniProt O15514)
inactive: [1] 0.027 | [2] -0.09 | [3] 0.074 | [4] -0.081 | [5] -0.02

POLR1A (UniProt O95602)
inactive: [1] 0.061 | [2] -0.011 | [3] 0.014 | [4] -0.082 | [5] 0.018

PPAN isoform 3 (UniProt Q9NQ55)
inactive: [1] 0.011 | [2] 0.006 | [3] 0.019 | [4] -0.008 | [5] 0.006

POLR2M (UniProt P0CAP2)
inactive: [1] 0.026 | [2] -0.005 | [3] 0.025 | [4] 0.024 | [5] 0.005

PM20D2 (UniProt Q8IYS1)
inactive: [1] 0.232 | [2] 0.228 | [3] 0.087

PNPLA6 (UniProt Q8IY17)
inactive: [1] 0.015 | [2] 0 | [3] -0.004 | [4] 0.014 | [5] 0.035

POLK (UniProt Q9UBT6)
inactive: [1] -0.07 | [2] 0.028

PMS2 (UniProt P54278)
inactive: [1] -0.021 | [2] 0.005 | [3] 0.024 | [4] -0.031 | [5] 0.039

POLR2F (UniProt P61218)
inactive: [1] 0.013 | [2] -0.105 | [3] -0.163 | [4] 0.381 | [5] 0.359

POLD3 (UniProt Q15054)
inactive: [1] -0.004 | [2] 0.002 | [3] 0.019 | [4] 0 | [5] 0.034

POU2F1 isoform 6 (UniProt P14859)
inactive: [1] 0.009 | [2] 0.048 | [3] 0.07 | [4] 0.02 | [5] 0.052

POGLUT2 (UniProt Q6UW63)
inactive: [1] -0.009 | [2] -0.02 | [3] 0.018 | [4] 0.015 | [5] -0.005

PPA2 (UniProt Q9H2U2)
inactive: [1] 0.006 | [2] 0.024 | [3] 0.011 | [4] -0.013 | [5] 0.007

POLR3B (UniProt Q9NW08)
inactive: [1] -0.025 | [2] 0.014 | [3] 0.014 | [4] 0.016 | [5] 0.002

PMVK (UniProt Q15126)
inactive: [1] -0.054 | [2] 0.001 | [3] 0.011 | [4] 0.061 | [5] -0.054

POLR3A (UniProt O14802)
inactive: [1] 0.009 | [2] 0.028 | [3] -0.001 | [4] 0.006 | [5] -0.039

POC5 (UniProt Q8NA72)
inactive: [1] 0.016 | [2] -0.052 | [3] 0.161 | [4] 0.17 | [5] -0.097

PNPO (UniProt Q9NVS9)
inactive: [1] 0 | [2] -0.05 | [3] -0.094 | [4] 0.056 | [5] 0.071

PPCS (UniProt Q9HAB8)
inactive: [1] -0.008 | [2] -0.01 | [3] 0.062 | [4] 0.06 | [5] 0.058

PLGRKT (UniProt Q9HBL7)
inactive: [1] 0.022 | [2] 0.069 | [3] 0.011 | [4] 0.143

PLOD2 isoform 2 (UniProt O00469)
inactive: [1] -0.189 | [2] 0.069 | [3] -0.125 | [4] -0.391

PLIN2 (UniProt Q99541)
inactive: [1] -0.138 | [2] 0.015 | [3] 0.021 | [4] -0.018 | [5] 0.014

PPIB (UniProt P23284)
inactive: [1] 0.015 | [2] -0.003 | [3] 0.013 | [4] 0.007 | [5] -0.005

POFUT2 (UniProt Q9Y2G5)
inactive: [1] 0.043 | [2] -0.005 | [3] -0.073 | [4] -0.051 | [5] -0.002

POLG2 (UniProt J3KRM2)
inactive: [1] 0.161 | [2] 0.12

PPIA (UniProt P62937)
inactive: [1] -0.02 | [2] -0.014 | [3] 0.011 | [4] 0.013 | [5] 0.004

POLD1 (UniProt P28340)
inactive: [1] 0.026 | [2] 0.003 | [3] 0.011 | [4] 0.03 | [5] 0.042

PPIE (UniProt Q9UNP9)
inactive: [1] 0.033 | [2] -0.023 | [3] 0.026 | [4] -0.04 | [5] -0.144

PPIA isoform 2 (UniProt P62937)
inactive: [1] 0.034 | [2] 0.017

POLR2G (UniProt P62487)
inactive: [1] 0.018 | [2] 0.021 | [3] -0.003 | [4] 0.007 | [5] -0.108

PMPCB (UniProt O75439)
inactive: [1] -0.004 | [2] 0.031 | [3] -0.017 | [4] 0.003 | [5] 0.007

PMS2CL (UniProt Q68D20)
inactive: [1] 0 | [2] -0.04

PNKD isoform 2 (UniProt Q8N490)
inactive: [1] 0.03 | [2] -0.038 | [3] 0.059 | [4] -0.052 | [5] 0.025

PMPCA (UniProt Q10713)
inactive: [1] 0.019 | [2] 0.031 | [3] 0.028 | [4] -0.013 | [5] -0.012

PON2 (UniProt Q15165)
inactive: [1] 0.046 | [2] -0.069 | [3] 0.024 | [4] -0.099 | [5] 0.068

POTEI (UniProt P0CG38)
inactive: [1] -0.018 | [2] 0.028 | [3] 0.026 | [4] 0.013 | [5] 0.014

POLR1C (UniProt O15160)
inactive: [1] -0.01 | [2] 0.026 | [3] 0.029 | [4] -0.026 | [5] 0.028

POP1 (UniProt Q99575)
inactive: [1] -0.015 | [2] -0.037 | [3] 0.014 | [4] -0.011 | [5] 0.005

4 entries picked at random from those above:
POTEI (UniProt P0CG38)
inactive: [1] -0.018 | [2] 0.028 | [3] 0.026 | [4] 0.013 | [5] 0.014

PMPCA (UniProt Q10713)
inactive: [1] 0.019 | [2] 0.031 | [3] 0.028 | [4] -0.013 | [5] -0.012

PMS2CL (UniProt Q68D20)
inactive: [1] 0 | [2] -0.04

PNKD isoform 2 (UniProt Q8N490)
inactive: [1] 0.03 | [2] -0.038 | [3] 0.059 | [4] -0.052 | [5] 0.025

(listing goes on)

PLG (UniProt P00747)
inactive: [1] -0.036 | [2] 0.024 | [3] -0.065 | [4] -0.181 | [5] -0.018

POLR3C (UniProt Q9BUI4)
inactive: [1] -0.003 | [2] -0.004 | [3] -0.033 | [4] -0.013 | [5] 0.003

POLG (UniProt P54098)
inactive: [1] -0.127 | [2] 0.287 | [3] -0.05 | [4] -0.019 | [5] -0.173

POLE4 (UniProt Q9NR33)
inactive: [1] -0.084 | [2] 0.019 | [3] -0.012 | [4] -0.006 | [5] 0.013

POLR3E (UniProt Q9NVU0)
inactive: [1] -0.031 | [2] -0.003 | [3] -0.001 | [4] -0.002 | [5] -0.012

POLE3 (UniProt Q9NRF9)
inactive: [1] 0.006 | [2] -0.017 | [3] -0.005 | [4] -0.006 | [5] -0.053

PLPBP (UniProt O94903)
inactive: [1] -0.011 | [2] 0.019 | [3] -0.003 | [4] 0.03 | [5] 0.048

POLR3F (UniProt Q9H1D9)
inactive: [1] 0.019 | [2] -0.016 | [3] -0.023 | [4] -0.011 | [5] 0.002

PLSCR1 (UniProt O15162)
inactive: [1] 0.14 | [2] 0.009 | [3] 0.035 | [4] -0.074 | [5] -0.07

POTEF (UniProt A5A3E0)
inactive: [1] -0.025 | [2] 0.074 | [3] 0.026 | [4] 0.015 | [5] -0.002

POLR3K (UniProt Q9Y2Y1)
inactive: [1] 0.077 | [2] -0.01 | [3] -0.023 | [4] -0.092 | [5] -0.005

POLDIP2 (UniProt Q9Y2S7)
inactive: [1] -0.02 | [2] 0.035 | [3] 0.001 | [4] 0.048 | [5] 0.017

POMP (UniProt Q9Y244)
inactive: [1] 0.077 | [2] -0.053 | [3] 0.045 | [4] -0.036 | [5] 0.061

POGLUT1 (UniProt Q8NBL1)
inactive: [1] 0.031 | [2] -0.025 | [3] 0.064 | [4] -0.046 | [5] 0.02
